For the test, the system named is L1210 leukemia ip in BDF1 mice, survival T/C. The experiment in a line: NCI In Vivo Anticancer Drug Screen. Data for tumor model L1210 Leukemia (intraperitoneal) in B6D2F1 (BDF1) mice. The settings on record: T/C endpoint: mean survival time, higher T/C = longer survival.
[1] abbreviates: dose: 200.0 mg/kg/injection, schedule: Q01DX001 (ip), vehicle: saline.
[2] abbreviates: dose: 35.0 mg/kg/injection, schedule: Q01DX015 (ip), vehicle: saline.
[3] abbreviates: dose: 50.0 mg/kg/injection, schedule: Q04DX003 (ip), vehicle: saline.
[4] abbreviates: dose: 52.5 mg/kg/injection, schedule: Q01DX015 (ip), vehicle: saline.
The mark [5] stands for this setting: dose: 200.0 mg/kg/injection, schedule: Q04DX003 (ip), vehicle: saline.
[6] abbreviates: dose: 400.0 mg/kg/injection, schedule: Q01DX001 (ip), vehicle: saline.
The mark [7] stands for this setting: dose: 100.0 mg/kg/injection, schedule: Q01DX009 (ip), vehicle: saline with Tween-80.
[8] abbreviates: dose: 400.0 mg/kg/injection, schedule: Q04DX002 (ip), vehicle: saline with Tween-80.
The mark [9] stands for this setting: dose: 400.0 mg/kg/injection, schedule: Q01DX009 (ip), vehicle: Klucel (hydroxypropylcellulose) (HPC).
[10] abbreviates: dose: 400.0 mg/kg/injection, schedule: Q04DX003 (ip), vehicle: saline with Tween-80.
Setting [11] is: dose: 100.0 mg/kg/injection, schedule: Q04DX002 (ip), vehicle: saline with Tween-80.

The structures appear in SMILES notation. The list shows only some results of the screen, not a fair sample: it gathers tests that were run many times, whatever their T/C, doses with no T/C, and many T/C values between a quarter and a half above the control. Other doses and runs of a compound stand elsewhere. T/C gives the treated animals as a percentage of the vehicle group. Some entries give survivors of the animals treated and no T/C: the source files T/C as zero there, which appears to mark a toxic dose or a test without result, not a measured value. Some doses without a T/C left all or most animals alive at the check, yet need not have been tolerated: survival well below the control is almost never listed, so the zero probably covers shortened survival too. Counts of survivors are from the toxicity check (mostly the fifth day) where no day follows; animals may have died later. Schedules are NCI's codes, read here as Q, the interval in days (D) or hours (H), X, the number of doses. Some doses were run more than once; the values are given in rising order. Some schedule codes hold Z or #, which are not explained here. Where survival is the endpoint, this PubChem deposit counts one and a half times the control or more as active, and values a quarter to a half above the control carry no call in these data; other NCI protocols may use other cut-offs. Some T/C values carry the count of animals alive at the toxicity check (mostly the fifth day); without a count, all were alive then. Brackets with × stand for listed records that agree.

For `COC1C(OC(C)=O)CC(=O)OC(C)C/C=C/C=C\C(O)C(C)CC(CC=O)C1OC1OC(C)C(OC2CC(C)(O)C(OC(=O)CC(C)C)C(C)O2)C(N(C)C)C1O` (stereo not given), under setting [1], the survivor count is given as 6 of 6.
For the compound `OCCOCCN1CCN(CC/C=C2\c3ccccc3Sc3ccc(C(F)(F)F)cc32)CC1`, the T/C is 136 % of control (dose: 12.0 mg/kg/injection, schedule: Q04DX003 (ip), vehicle: saline with Tween-80); 91, 101, 113 [5 of 6 alive], 147 % of control (dose: 15.5 mg/kg/injection, schedule: Q01DX015 (ip), vehicle: saline); 132 % of control (dose: 18.0 mg/kg/injection, schedule: Q04DX003 (ip), vehicle: saline with Tween-80); 143 % of control under setting [2]; 142 % of control under setting [3]; 127 % of control under setting [4]. The T/C (dose: 100.0 mg/kg/injection, schedule: Q01DX001 (ip), vehicle: saline) is 125 % of control. In addition, the survivor count reads like this: (dose: 12.5 mg/kg/injection, schedule: Q04DX003 (ip), vehicle: saline) 2 of 6; (dose: 23.3 mg/kg/injection, schedule: Q01DX015 (ip), vehicle: saline) 4 of 6; (dose: 25.0 mg/kg/injection, schedule: Q04DX003 (ip), vehicle: saline) 0 of 6; under setting [2], 5 of 6 and 6 of 6; under setting [3], 0 of 6; under setting [4], 3 of 6 and 4 of 6. Further, the survivor count runs as follows: (dose: 80.0 mg/kg/injection, schedule: Q01DX009 (ip), vehicle: saline) 0 of 6; (dose: 100.0 mg/kg/injection, schedule: Q04DX003 (ip), vehicle: saline) 0 of 6; (dose: 105.0 mg/kg/injection, schedule: Q01DX015 (ip), vehicle: saline) 5 of 6; under setting [1], 0 of 4 and 0 of 6; under setting [5], 1 of 6; under setting [6], 0 of 4 and 0 of 6.
Consider `S=C1NC(c2ccc(Cl)cc2)N2C(=S)NC(c3ccc(Cl)cc3)N12` (stereo not given), for which the survivor count (dose: 400.0 mg/kg/injection, schedule: Q01DX009 (ip), vehicle: gum acacia) is on record as 6 of 6.
On to `CC(=O)C1COC(O)C1C` (stereo not given), for which the survivor count by setting is: (dose: 5.0 mg/kg/injection, schedule: Q01DX009 (ip), vehicle: saline) 6 of 6; (dose: 20.0 mg/kg/injection, schedule: Q01DX001 (ip), vehicle: saline) 0 of 6; (dose: 40.0 mg/kg/injection, schedule: Q01DX001 (ip), vehicle: saline) 3 of 6; (dose: 80.0 mg/kg/injection, schedule: Q01DX001 (ip), vehicle: saline) 0 of 6.
In the case of `CCCCCCCOCc1ccccc1`, under setting [5], the T/C is 126 % of control.
In the case of `COC(=O)c1ccc(C)cn1`, the survivor count runs as follows: under setting [1], 0 of 4; under setting [6], 0 of 4.
Regarding `COC(=O)c1ccccc1NC(OC)c1cccc([N+](=O)[O-])c1` (stereo not given), the T/C is 95 (2×), 100, 101 % of control (dose: 50.0 mg/kg/injection, schedule: Q01DX009 (ip), vehicle: saline with Tween-80); 92 [5 of 6 alive] and 98 % of control [2 of 3 alive] under setting [7]; 88, 90 [2 of 3 alive], 91, 93 % of control (dose: 200.0 mg/kg/injection, schedule: Q01DX009 (ip), vehicle: saline with Tween-80). Moreover, the survivor count runs as follows: under setting [7], 3 of 3 and 6 of 6; under setting [8], 3 of 3.
Take `O=C(Nc1ccc([N+](=O)[O-])cc1Cl)SCc1ccccc1`: under setting [9], the survivor count was 2 of 3 and 5 of 6.
`C1CCC2CC3CCCCC3CC2C1` (stereo not given): under setting [1], the survivor count is reported as 1 of 4.
For `O=C(CCCCC(=O)OCCBr)OCCBr`, the survivor count is, setting by setting: (dose: 100.0 mg/kg/injection, schedule: Q04DX003 (ip), vehicle: Klucel (hydroxypropylcellulose) (HPC)) 3 of 6; (dose: 400.0 mg/kg/injection, schedule: Q04DX003 (ip), vehicle: Klucel (hydroxypropylcellulose) (HPC)) 3 of 6.
For `CN=C(NC(C=O)C(O)C(O)C(O)CO)c1ccc(NC(=O)c2ccc(C(=O)Nc3ccc(C(=NC)NC(C=O)C(O)C(O)C(O)CO)cc3)cc2)cc1` (stereo not given), for the setting “dose: 250.0 mg/kg/injection, schedule: Q01DX Z (ip), vehicle: water”, the T/C is 129 % of control [5 of 6 alive]. Further, under “dose: 500.0 mg/kg/injection, schedule: Q01DX Z (ip), vehicle: water”, the survivor count is 0 of 6.
Turning to `CCOC(=O)COCc1ccccc1`, the T/C (dose: 400.0 mg/kg/injection, schedule: Q04DX003 (ip), vehicle: saline sonified) was 129 % of control.
Regarding `CCN(CC)CC(Cl)COc1ccccc1C` (stereo not given), under setting [6], the survivor count is listed as 2 of 4.
Regarding `O=C(Nc1ccc(Cl)cc1)Nc1ccc(Cl)cc1`, the survivor count under setting [10] is listed as 6 of 6.
`Cc1ccc(Cl)cc1S`: the survivor count is 0 of 6 (dose: 200.0 mg/kg/injection, schedule: Q01DX009 (ip), vehicle: water); 1 of 6 (dose: 200.0 mg/kg/injection, schedule: Q04DX003 (ip), vehicle: water); 0 of 6 (dose: 400.0 mg/kg/injection, schedule: Q01DX009 (ip), vehicle: water); 0 of 6 (dose: 400.0 mg/kg/injection, schedule: Q04DX003 (ip), vehicle: water).
Consider `Nc1nc(N)c(CCCCc2ccccc2)c(C=O)n1`, for which the survivor count reads like this: (dose: 200.0 mg/kg/injection, schedule: Q01DX009 (ip), vehicle: Klucel (hydroxypropylcellulose) (HPC)) 5 of 6; under setting [9], 1 of 6.
`O=C1c2ccsc2C(=O)c2sccc21`: where the note is “dose: 400.0 mg/kg/injection, schedule: Q01DX001 (ip), vehicle: saline with Tween-80”, the survivor count is reported as 0 of 6.
For `CCN(CC)c1cc[c]([Hg][O]C(C)=O)cc1`, the survivor count (dose: 25.0 mg/kg/injection, schedule: Q04DX003 (ip), vehicle: saline with Tween-80) is recorded as 0 of 6; the survivor count under setting [11] is 0 of 3; the survivor count (dose: 200.0 mg/kg/injection, schedule: Q04DX002 (ip), vehicle: saline with Tween-80) was 0 of 3; the survivor count under setting [8] is listed as 0 of 3.
Regarding `[O-][n+]1ccccc1/C=C\c1ccccc1`, the survivor count under setting [6] is listed as 1 of 6.
Consider `CCC[CH2][Sn]1([CH2]CCC)[O]C(=O)c2cccc([N+](=O)[O-])c2C(=O)[O]1`, for which the survivor count is given as 1 of 4 under setting [1] and 0 of 4 under setting [6].
On to `CCCCCCOP(=O)(N1CC1)N1CC1`, for which the survivor count is, setting by setting: (dose: 300.0 mg/kg/injection, schedule: Q01DX001 (ip), vehicle: saline) 5 of 6; under setting [6], 1 of 6; (dose: 800.0 mg/kg/injection, schedule: Q01DX001 (ip), vehicle: saline) 1 of 6.
As to `Cc1cc(=O)[nH]c(N/N=C/c2ccccc2O)n1`, the survivor count (dose: 300.0 mg/kg/injection, schedule: Q01DX009 (ip), vehicle: Klucel (hydroxypropylcellulose) (HPC)) was 4 of 6.
For `CC(C)(CCCl)N(Cc1ccccc1)Cc1ccccc1`, the survivor count (dose: 400.0 mg/kg/injection, schedule: Q01DX009 (ip), vehicle: saline) was 6 of 6.
Regarding `CC(CO)(CI)[n+]1ccccc1` (stereo not given), the survivor count is recorded as 0 of 6 (dose: 200.0 mg/kg/injection, schedule: Q04DX003 (ip), vehicle: saline with Tween-80) and 0 of 6 under setting [10].
On to `C[N+](C)(CC(=O)Nc1ccc(Cl)cc1)Cc1ccc2c(c1)CCCC2`, for which the survivor count by setting is: (dose: 50.0 mg/kg/injection, schedule: Q04DX002 (ip), vehicle: saline with Tween-80) 1 of 3; under setting [11], 0 of 3.
